{"source": "PubChem BioAssay AID1159578 (Peter MacCallum Cancer Centre, 2015)", "purpose": "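Genome-wide hunt for genes controlling movement of lymphatic endothelial cells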 (primary screen)", "cell system": "human lymphatic endothelial cells", "reagent": "siRNA pool against human genes, 40 nM", "duration": "48 h after transfection", "measurement": "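Cells stained with dye and imaged after a scratch; covered wound area and nuclei counted, duplicates averaged, migration set against mock wells and turned into a robust z-score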", "direction": "migration robust z-score: higher = faster migration into the scratch; nuclei per well: higher = more cells in the well", "hit rule": "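Pools averaging fewer than 3300 nuclei are never called; remaining pools count as changed when migration robust z lies outside -2 to 2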", "meaning of the calls": "active = migration changed; inactive = no migration change, or too few cells", "note": "The deposit covers about 18,000 reagents; below is a random part of them. About 1,030 of them (5.7%) were called active. 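Inactive calls also include pools with fewer than 3300 nuclei, whose migration was not assessed.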 Raw values vary from plate to plate and are shown uncorrected. Further read-outs or replicates are left out here."}
{"gene symbol": "GARS1", "migration robust z-score": 1.12, "migration class with cell-count check": "migration z between -2 and 2; enough cells", "nuclei per well, duplicate mean": 5048, "call": "inactive"}
{"gene symbol": "SRPRB", "migration robust z-score": -0.28, "migration class with cell-count check": "migration z between -2 and 2; enough cells", "nuclei per well, duplicate mean": 4909, "call": "inactive"}
{"gene symbol": "SLC15A1", "migration robust z-score": -0.8, "migration class with cell-count check": "migration z between -2 and 2; enough cells", "nuclei per well, duplicate mean": 5524, "call": "inactive"}
{"gene symbol": "ATP6V1F", "migration robust z-score": -1.27, "migration class with cell-count check": "migration z between -2 and 2; enough cells", "nuclei per well, duplicate mean": 5744, "call": "inactive"}
{"gene symbol": "ARL8B", "migration robust z-score": -0.74, "migration class with cell-count check": "migration z between -2 and 2; enough cells", "nuclei per well, duplicate mean": 6369, "call": "inactive"}
{"gene symbol": "FAH", "migration robust z-score": -0.07, "migration class with cell-count check": "migration z between -2 and 2; enough cells", "nuclei per well, duplicate mean": 5912, "call": "inactive"}
{"gene symbol": "JMJD7-PLA2G4B", "migration robust z-score": 0.34, "migration class with cell-count check": "migration z between -2 and 2; enough cells", "nuclei per well, duplicate mean": 4896, "call": "inactive"}
{"gene symbol": "GTPBP3", "migration robust z-score": -0.88, "migration class with cell-count check": "migration z between -2 and 2; enough cells", "nuclei per well, duplicate mean": 5381, "call": "inactive"}
{"gene symbol": "CGB8", "migration robust z-score": -0.11, "migration class with cell-count check": "migration z between -2 and 2; enough cells", "nuclei per well, duplicate mean": 5752, "call": "inactive"}

A portion from the list above, for reference:
{"gene symbol": "ARL8B", "migration robust z-score": -0.74, "migration class with cell-count check": "migration z between -2 and 2; enough cells", "nuclei per well, duplicate mean": 6369, "call": "inactive"}
{"gene symbol": "FAH", "migration robust z-score": -0.07, "migration class with cell-count check": "migration z between -2 and 2; enough cells", "nuclei per well, duplicate mean": 5912, "call": "inactive"}

The results go on.
{"gene symbol": "ANGPTL1", "migration robust z-score": 0.02, "migration class with cell-count check": "migration z between -2 and 2; enough cells", "nuclei per well, duplicate mean": 4874, "call": "inactive"}
{"gene symbol": "DPP10", "migration robust z-score": 1.92, "migration class with cell-count check": "migration z between -2 and 2; enough cells", "nuclei per well, duplicate mean": 6449, "call": "inactive"}
{"gene symbol": "MRPL21", "migration robust z-score": 1.44, "migration class with cell-count check": "migration z between -2 and 2; enough cells", "nuclei per well, duplicate mean": 6304, "call": "inactive"}
{"gene symbol": "MGA", "migration robust z-score": 0.46, "migration class with cell-count check": "migration z between -2 and 2; enough cells", "nuclei per well, duplicate mean": 6262, "call": "inactive"}
{"gene symbol": "CHGA", "migration robust z-score": 0.96, "migration class with cell-count check": "migration z between -2 and 2; enough cells", "nuclei per well, duplicate mean": 6244, "call": "inactive"}
